These are yes or no findings as the source states them, for the method shown.

Sequences of proteins named here, by UniProt entry; tags and fusion partners are left off. A change or cut given only in a name is not applied to a line headed by its entry.
UniProt Q99638: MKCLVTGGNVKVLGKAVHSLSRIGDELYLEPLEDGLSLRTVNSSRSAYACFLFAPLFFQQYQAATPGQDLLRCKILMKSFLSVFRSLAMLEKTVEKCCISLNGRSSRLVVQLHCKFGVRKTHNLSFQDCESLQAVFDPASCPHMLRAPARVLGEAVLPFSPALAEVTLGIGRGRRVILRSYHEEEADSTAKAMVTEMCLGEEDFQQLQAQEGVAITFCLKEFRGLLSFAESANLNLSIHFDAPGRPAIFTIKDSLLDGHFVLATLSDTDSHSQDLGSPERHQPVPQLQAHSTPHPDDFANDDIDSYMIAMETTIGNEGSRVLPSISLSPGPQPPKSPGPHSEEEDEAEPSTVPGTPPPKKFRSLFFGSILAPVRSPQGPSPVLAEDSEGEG
UniProt P53350: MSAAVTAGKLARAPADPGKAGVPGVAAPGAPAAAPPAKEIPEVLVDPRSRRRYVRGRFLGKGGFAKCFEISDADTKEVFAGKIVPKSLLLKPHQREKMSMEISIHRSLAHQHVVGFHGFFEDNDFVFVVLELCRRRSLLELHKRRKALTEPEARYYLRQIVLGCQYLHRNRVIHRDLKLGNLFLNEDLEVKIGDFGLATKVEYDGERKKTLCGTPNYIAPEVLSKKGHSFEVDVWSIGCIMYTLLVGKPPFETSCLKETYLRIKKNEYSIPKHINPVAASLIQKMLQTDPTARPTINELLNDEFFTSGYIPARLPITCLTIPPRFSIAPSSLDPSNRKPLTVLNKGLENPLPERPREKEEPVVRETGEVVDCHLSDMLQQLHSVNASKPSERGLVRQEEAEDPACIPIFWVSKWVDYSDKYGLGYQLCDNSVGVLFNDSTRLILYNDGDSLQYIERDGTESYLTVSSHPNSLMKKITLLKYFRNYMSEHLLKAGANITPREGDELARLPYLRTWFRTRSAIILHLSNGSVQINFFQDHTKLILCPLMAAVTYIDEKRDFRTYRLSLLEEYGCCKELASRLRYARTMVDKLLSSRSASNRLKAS

The target of test [1] is GST-RAD9 (3A) C-terminus (a.a. 266-391), not treated with CDK2-Cyclin A2 (human) (UniProt Q99638). The test can be described thus: condition: 4 pmol PLK1 with 30 pmol GST-RAD9 in 15 µl; pull-down; GST-RAD9 (3A) (30 pmol) pre-incubated with or without CDK2-Cyclin A2 (0.5 pmol) in 15 µl kinase buffer (50 mM HEPES pH 7.4, 10 mM MgCl2, 1 mM DTT, ATP, 0.1% Triton X-100) at 30 C for 30 min, then with 4 pmol PLK1 (30 C 5 min, 4 C 30 min); captured with GSH-beads 30 min at 4 C; anti-PLK1 blot; both purified.

Test [2] deals with GST-RAD9 (3A)-T292A C-terminus (a.a. 266-391) (human) (UniProt Q99638). The description is as above.

For the substance “PLK1, recombinant (Polo-Like-Kinase1) (from UniProt P53350 1-603) (enzyme)”, the binding entry in test [1] and in test [2] was “no binding” each time.

For the origin of these results see publication PMC5736350.
